# Measurements as given in PubChem BioAssay AID1347423 (Functional Genomics Laboratory (NCATS/FGL), 2020).
# The campaign covered roughly 52,000 sequences. About 210 (0.4%) were called active.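 The calls were made as follows: active = gene whose silencing raises cell survival under the drug, median off-target-corrected z-score across its silencing RNAs 2 or more; inactive = the rest.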 Some of the results follow.
# Experiment: Resistance to Poly (ADP-Ribose) Polymerase inhibitor: Gene Identification via Genome-wide siRNA Screen
# Conditions: mouse BRCA2 R2336H ES cells, olaparib, CellTiter-Glo viability; stronger effect = higher value
# Method in brief: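 Genome-wide siRNA screen (3 siRNAs/gene, 20 nM) in mouse ES cells carrying hypomorphic BRCA2 R2336H; olaparib 500 nM added 48 h post-transfection, CellTiter-Glo viability 72 h later. Normalized to plate-median negative control; MAD z-scores, gene median, seed-adjusted.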
row,Sequence,z-score
1,CCUGAUACCCAAAGACUCATT against Dnaic1,inactive: -0.0677
2,CGAGAGUUCUGUGACCAUGTT against Olfr1165,inactive: 1.67
3,GGCAAACGAUAAAGAAAUCTT against Ptp4a2,inactive: 0.55
4,GCCCUUUUCAGGGAAAACUTT against Myh8,inactive: -0.561
5,GGGUUUGUCAUCACUGUCUTT against Bdkrb1,inactive: -0.695
6,GCCCAUUCAAACUAUCUAUTT against Ttk,inactive: -0.25
7,GCUUUUAGGCCAUUAUCAGTT against Ddx46,inactive: -0.823
8,GGACACUGGGCGAAUAGUGTT against Cdkl3,inactive: -0.898
9,GCGUACGUGGACUUAACUCTT against Gtf2a2,inactive: 0.637
10,GGACAGAUGAACUUCAAUGTT against C1galt1,inactive: -0.811
11,GGAUGAUGAAAUUGGAGAUTT against Cct5,inactive: -2.51
12,GGUCUCAAAGAAGAGGAGUTT against BC022645,inactive: -0.774
13,GCAAAUGCGACUUUACACATT against Top1,inactive: 1.02
14,CACCCUUCUCUGAUUGUCUTT against 2310007F04Rik,inactive: 0.111
15,GGACGUGGAAAACCACAGUTT against Nphp4,inactive: 0.436
16,GGCACUUCAGAGCAAAUUGTT against Slc16a4,inactive: -0.257
17,CCACCUACGUCAACACUAATT against Kcnh6,inactive: 2.22
18,GCCGGUGGAAUAUGCUCCATT against AI649392,inactive: -2.71
19,GGACCUGUGUGUUCUUUGATT against Amhr2,inactive: 0.723
20,GGAGCUUGUUCGAGAUCCATT against Insl5,inactive: -0.654
21,GGAGAAAGUCCUUUUUGUUTT against Sh3gl2,inactive: 1.2
22,GGGCAUUUACGUCACACGATT against Tax1bp3,inactive: 1.04
23,UCCAAGCUGUUGUUUAUACTT against Acsl1,inactive: -0.237
24,GGAUGAGUACACUGAAAGCTT against Nvl,inactive: -0.000258
25,CCCAAUAAAGCUUGUGUAATT against Nudt14,inactive: -0.606
26,GGAUCAACUGGUGACACAGTT against Preb,inactive: -0.0488
27,CCUCCUGUUAAUCAAACUGTT against 1700020H15,inactive: 0.627
28,GGAACCACAUUAUGGAUCUTT against Rbx1,inactive: -1.04
29,GGCAGUGUUUUUAUUUGAUTT against Pold3,inactive: -0.316

# Part of the list above, tab-delimited.
row	Sequence	z-score
2	CGAGAGUUCUGUGACCAUGTT against Olfr1165	inactive: 1.67
6	GCCCAUUCAAACUAUCUAUTT against Ttk	inactive: -0.25
19	GGACCUGUGUGUUCUUUGATT against Amhr2	inactive: 0.723
25	CCCAAUAAAGCUUGUGUAATT against Nudt14	inactive: -0.606
26	GGAUCAACUGGUGACACAGTT against Preb	inactive: -0.0488
27	CCUCCUGUUAAUCAAACUGTT against 1700020H15	inactive: 0.627
28	GGAACCACAUUAUGGAUCUTT against Rbx1	inactive: -1.04
